## Primary screen of a compound library

The values are deposited in ChEMBL (CHEMBL3988442, “University of Dundee, Small-Polar-MMV Screening Library” (2021)).

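Whole-cell growth test on Mycobacterium tuberculosis, read after 3 days in glucose-containing 7H9 medium; the read-out is not stated. Concentration: 50 µM. Higher reads as more growth inhibition (inferred: compounds with an IC50 in retests scored well above the rest). About 69,000 compounds were tested under these conditions; 1.1% (about 760) showed 50% or more at least once.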

Each number is a percent effect as filed.
The record does not define 0% and 100%; most values in the screen are far below 50% and negative numbers occur (in some assays of this library far below -100).
Compounds were drawn at random from those tested, without regard to their results.
Two or more numbers in one place are separate tests of the same structure; such repeats can differ widely.

structure	Percent Effect
COc1ccc(CCC(=O)Nc2ccncc2C)cc1	0.04542
CN(Cc1cc2c(cc1OC(F)F)OCO2)Cc1nccn1C	27.37
CCOc1cc(Cl)c(CN2CCC3(CCCNC3=O)C2)cc1OC (stereo not drawn)	0.07424 and 30.32
CN1CCC(Nc2ccc(F)cc2OCC(F)(F)F)C1=O (stereo not drawn)	9.636
O=C(c1cnccn1)N1CCC2(CC1)C(=O)NCC2c1ccccc1 (stereo not drawn)	-20.04 and -7.541
COC(=O)C(C)(C)NC(=O)c1scnc1Cl	29.53 and -48.49
Oc1cc(CCC2CCCCN2)cc(-c2cccnc2)c1 (stereo not drawn)	13.22
[H][C@@]12CCN(C(=O)c3ccccc3)[C@]1([H])C(=O)N(Cc1ccccc1)C(=O)N2	-1.93 and 4.919
Cc1nn(C)c(Cl)c1C1CCCN1Cc1cn2ccsc2n1 (stereo not drawn)	-7.567
Cn1cnnc1SCC(=O)NC1CC(=O)N(CCc2cccc(Cl)c2)C1 (stereo not drawn)	11.28 and 4.164
CC(C)CN1CCC2(C=C(C(=O)NC3CC3)c3ccccc32)CC1.O=C(O)C(F)(F)F	9.016
O=C(c1cc(-n2cccn2)ccn1)N1CCOc2ncccc21	6.198
CC(C)c1nn(C)c(N(C)C)c1CNC1CCC(O)CC1 (stereo not drawn)	21.76 and -6.021
Cc1ccc(CN2CCC(Cc3nnc(CO)n3C)CC2)cc1C	-3.003
COc1ccc(Cl)cc1CC(=O)NS(=O)(=O)c1ccc(C(N)=O)cc1	11.49
Cc1ccc(C(=O)N(Cc2cccc(F)c2)C2CC2)c(=O)[nH]1	-10.04
CCc1cnc(CN(C)C2CCN(CC3CCC3)C2)o1 (stereo not drawn)	27.37
O=C(O)C(F)(F)F.O=C(O)C(F)(F)F.O=C(c1c[nH]cn1)N1CCCn2c(CN3CCCCC3)nnc2C1	-5.686 and -10.05
CN(Cc1ccc(F)cc1)[C@@H]1CN(S(C)(=O)=O)C[C@H]1O	-15.71
Cc1cccc(C(=O)N2CCCCC2c2[nH]ncc2S(C)(=O)=O)c1 (stereo not drawn)	10.8
CN(Cc1nnc(C2CC2)n1C)C1CCN(Cc2ccon2)C1 (stereo not drawn)	-37.55
CCc1ccc(CCC(=O)N2CCOCC2c2ncon2)cc1 (stereo not drawn)	7.289
[H][C@]12CC[C@]([H])(CN(S(C)(=O)=O)C1)N(Cc1ccc3nsnc3c1)C2	20.65
Fc1ccc(N2CCC3(CC2)CC(OCc2cccnc2)CO3)cc1.O=C(O)C(F)(F)F (stereo not drawn)	24.64 and 27.58
Cc1ccc(NS(=O)(=O)c2cnn(-c3ccccc3)c2)c(C(=O)O)c1	14.33
Cc1nc(O)cc(C2CCN(C(=O)c3[nH]nc4c3CC(C)CC4)CC2)n1 (stereo not drawn)	-22.37
Cl.O=C(C1CC1)N1CCOC2(CCNCC2)C1	-6.618
CC(C)c1n[nH]c(C2CN(CCc3cccs3)CCO2)n1 (stereo not drawn)	-2.778
O=C(Nc1ccc(F)cc1F)N(CCC(F)(F)F)C[C@H](O)CO	-4.053
N#Cc1ccc(CS(=O)(=O)NC(=O)COc2ccc3c(c2)CCC3)cc1	-4.192
COCCNc1ccccc1CNC(=O)C1CCCOC1 (stereo not drawn)	-19.65
CCN1CCCn2c(nc(CNC(=O)c3cnoc3C)cc2=O)C1.O=C(O)C(F)(F)F	-1.152
O=C(O)c1cccc(C2CCCN(S(=O)(=O)C3CC3)C2)c1 (stereo not drawn)	4.827 and -18.83
CN1CCOC(C(=O)Nc2ccc3[nH]nnc3c2)C1 (stereo not drawn)	-12.05
COc1cccc(-c2noc(C3CCN(Cc4ccccc4F)C3)n2)c1.Cl (stereo not drawn)	-74.01
CCC(C)NC(=O)Nc1cccc(OC)c1 (stereo not drawn)	-7.759
Cc1cnn(CCCNC(=O)NC2CCN(CC(F)(F)F)C2=O)c1 (stereo not drawn)	-13.45
N#Cc1ccc(NC2CCN(c3ncccn3)CC2)cc1C(F)(F)F	75.66
CC(C)c1[nH]c2ncccc2c1CN1CCN(S(=O)(=O)N(C)C)CC1	19.06
Cc1cnc(C(C)(C)NC(=O)NCc2ccon2)s1	3.559
Cn1cccc1C(=O)NCc1cn2c(n1)CN(CC1CCOCC1)CC2.O=C(O)C(F)(F)F	-14.18
CC(C)CC(C(=O)N(C)Cc1ncnn1C)N1CCCCC1=O (stereo not drawn)	-10.99 and 1.963
CCc1cnc(C)nc1N1CCN(C(N)=O)CC1	-8.664
COC(=O)CNC(=O)c1cc(-c2ccccc2)nc2ncnn12	26.33
Cc1nc(NC(=O)NC(CS(C)(=O)=O)c2ccccc2)sc1C (stereo not drawn)	-7.833
[H][C@]1([C@@]2(C)CC[C@H](O)C(C)(C)O2)CC2(CCN(c3cnccn3)CC2)CO1	-0.2298
CC(C)(CN1C[C@H](Nc2ncccn2)[C@@H](C2CC2)C1)N1CCOCC1	-4.561 and -17.36
CN(c1ncc(C(N)=O)cc1Cl)C1CCC(c2ccccc2)CC1 (stereo not drawn)	11.03 and 30.41
COCCN(Cc1cccc(C#N)c1)Cc1nc(C)no1	-13.11
COc1ccc(-n2ccc(C(=O)N3CCC(C(N)=O)C3)n2)cc1 (stereo not drawn)	-9.133
CC(NC(=O)Cc1cccs1)c1nnc2n1CCC2 (stereo not drawn)	-22.96 and -6.985
Cc1nccn1C1CCCN(C(=O)c2ccc3c(c2)NC(=O)CO3)C1 (stereo not drawn)	-0.4975
CCn1ncc2c1CN(C(=O)c1cc(C)oc1C)CC2COC.O=C(O)C(F)(F)F (stereo not drawn)	-5.978 and 3.17
Cc1cc(C(=O)N2CCc3c(ncn3CCc3ccccc3)C2)on1	38.41
O=C(CCc1cccnc1)N1CCC2(CCN(CC3CCCC3)C2)C1.O=C(O)C(F)(F)F.O=C(O)C(F)(F)F (stereo not drawn)	-3.36
CN1N=C(C(=O)N(Cc2ccco2)C2CC2)CCC1=O	2.165 and 3.595

Some entries from above, unchanged:

structure,Percent Effect
Cc1cc(C(=O)N2CCc3c(ncn3CCc3ccccc3)C2)on1,38.41
N#Cc1ccc(NC2CCN(c3ncccn3)CC2)cc1C(F)(F)F,75.66
CCOc1cc(Cl)c(CN2CCC3(CCCNC3=O)C2)cc1OC (stereo not drawn),0.07424 and 30.32